From article PMC7949124, “Metallo-β-lactamase domain-containing protein 2 is S-palmitoylated and exhibits acyl-CoA hydrolase activity” (The Journal of Biological Chemistry, 2020)
No constants are given. Whether binding was seen depends on the method and setting. Binding seen in cells or lysates may run through a third protein. Some binding calls cover weakened binding; strength is not graded here. Sequences can lack the tags named with a protein.

Experiments:
[1] = target: T1, N-terminally FLAG-tagged MBLAC2 (metallo-β-lactamase domain-containing protein 2), wildtype (human) (UniProt Q68D91); experiment: co-IP; FLAG-MBLAC2 and zDHHC20-GFP constructs coexpressed in HEK-293 cells; lysis in 50 mM Tris pH 7.4, 200 mM NaCl, 1% DDM, 10% glycerol, 1 mM TCEP; cleared lysate on FLAG resin 4 h; eluted with 3X FLAG peptide; immunoblot with FLAG and GFP antibodies
T1 sequence: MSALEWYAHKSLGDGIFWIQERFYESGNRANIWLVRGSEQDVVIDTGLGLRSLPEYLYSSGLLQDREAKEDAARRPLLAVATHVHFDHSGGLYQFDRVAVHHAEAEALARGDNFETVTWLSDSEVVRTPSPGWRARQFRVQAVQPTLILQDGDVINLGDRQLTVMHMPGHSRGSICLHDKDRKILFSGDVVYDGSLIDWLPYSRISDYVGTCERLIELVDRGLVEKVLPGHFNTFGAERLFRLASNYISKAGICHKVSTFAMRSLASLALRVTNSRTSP

[2] = target: T2, N-terminally FLAG-tagged MBLAC2(C254A), S-palmitoylation-deficient mutant (human) (UniProt Q68D91); experiment: as above
T2 sequence: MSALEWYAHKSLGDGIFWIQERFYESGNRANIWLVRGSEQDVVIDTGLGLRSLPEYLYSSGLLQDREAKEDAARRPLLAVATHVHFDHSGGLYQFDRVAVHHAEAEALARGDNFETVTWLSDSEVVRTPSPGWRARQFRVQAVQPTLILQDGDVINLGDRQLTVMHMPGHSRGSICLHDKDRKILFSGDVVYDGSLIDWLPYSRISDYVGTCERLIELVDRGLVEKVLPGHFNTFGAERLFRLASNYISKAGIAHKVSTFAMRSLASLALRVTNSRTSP

B1: C-terminally GFP-tagged zDHHC20 (enzyme, UniProt Q5W0Z9 1-365)
chain: MAPWTLWRCCQRVVGWVPVLFITFVVVWSYYAYVVELCVFTIFGNEENGKTVVYLVAFHLFFVMFVWSYWMTIFTSPASPSKEFYLSNSEKERYEKEFSQERQQEILRRAARALPIYTTSASKTIRYCEKCQLIKPDRAHHCSACDSCILKMDHHCPWVNNCVGFSNYKFFLLFLLYSLLYCLFVAATVLEYFIKFWTNELTDTRAKFHVLFLFFVSAMFFISVLSLFSYHCWLVGKNRTTIESFRAPTFSYGPDGNGFSLGCSKNWRQVFGDEKKYWLLPIFSSLGDGCSFPTRLVGMDPEQASVTNQNEYARSSGSNQPFPIKPLSESKNRLLDSESQWLENGAEEGIVKSGTNNHVTVAIEN
[1]
  binding: binds
[2]
  binding: binds
